These are yes or no findings as the source states them, for the method shown. Binding seen in cells or lysates may run through a third protein. Here binding means that the protein was enriched with, or labelled near, the bait; the list need not be complete. For part of these data: A no says only that the protein was not detected with the bait. For part of these data: Sequences can lack the tags named with a protein.
T1: YFP-PAD4 (pPAD4:YFP-Linker-PAD4) (Arabidopsis thaliana) (UniProt Q9S745)
T1 sequence: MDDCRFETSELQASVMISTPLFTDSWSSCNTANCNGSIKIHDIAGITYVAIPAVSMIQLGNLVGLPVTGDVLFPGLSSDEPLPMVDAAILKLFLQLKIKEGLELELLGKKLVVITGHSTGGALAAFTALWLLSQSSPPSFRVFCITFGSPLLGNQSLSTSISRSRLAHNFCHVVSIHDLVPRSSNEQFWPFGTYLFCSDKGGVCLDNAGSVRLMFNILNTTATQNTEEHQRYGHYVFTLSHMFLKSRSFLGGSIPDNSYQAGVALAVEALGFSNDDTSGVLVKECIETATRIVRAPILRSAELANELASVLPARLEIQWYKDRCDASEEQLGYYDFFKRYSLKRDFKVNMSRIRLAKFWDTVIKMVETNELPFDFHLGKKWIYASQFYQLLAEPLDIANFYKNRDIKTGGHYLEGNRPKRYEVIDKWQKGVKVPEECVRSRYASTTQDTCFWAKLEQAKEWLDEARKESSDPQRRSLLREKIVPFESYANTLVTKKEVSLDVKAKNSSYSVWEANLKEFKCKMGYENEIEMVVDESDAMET

By UniProt entry, the sequences of proteins in these tests, tags left out. Where a name states a change or a piece, a line headed by the entry shows the natural chain unless it says otherwise.
UniProt Q4F883: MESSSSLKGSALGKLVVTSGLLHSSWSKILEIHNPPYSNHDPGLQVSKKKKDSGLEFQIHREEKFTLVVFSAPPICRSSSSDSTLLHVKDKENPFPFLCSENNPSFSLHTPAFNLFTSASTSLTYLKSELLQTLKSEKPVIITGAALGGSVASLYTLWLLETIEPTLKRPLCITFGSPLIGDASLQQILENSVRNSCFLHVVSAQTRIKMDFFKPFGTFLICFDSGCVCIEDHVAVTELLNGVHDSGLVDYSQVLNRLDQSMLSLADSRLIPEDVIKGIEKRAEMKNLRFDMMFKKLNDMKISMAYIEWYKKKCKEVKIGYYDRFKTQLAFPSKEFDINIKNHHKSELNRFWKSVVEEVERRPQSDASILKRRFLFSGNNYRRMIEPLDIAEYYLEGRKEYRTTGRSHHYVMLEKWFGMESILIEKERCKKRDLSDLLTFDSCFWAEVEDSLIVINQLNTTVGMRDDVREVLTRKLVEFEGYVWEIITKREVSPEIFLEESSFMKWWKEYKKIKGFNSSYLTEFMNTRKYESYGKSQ
UniProt Q9LZ25: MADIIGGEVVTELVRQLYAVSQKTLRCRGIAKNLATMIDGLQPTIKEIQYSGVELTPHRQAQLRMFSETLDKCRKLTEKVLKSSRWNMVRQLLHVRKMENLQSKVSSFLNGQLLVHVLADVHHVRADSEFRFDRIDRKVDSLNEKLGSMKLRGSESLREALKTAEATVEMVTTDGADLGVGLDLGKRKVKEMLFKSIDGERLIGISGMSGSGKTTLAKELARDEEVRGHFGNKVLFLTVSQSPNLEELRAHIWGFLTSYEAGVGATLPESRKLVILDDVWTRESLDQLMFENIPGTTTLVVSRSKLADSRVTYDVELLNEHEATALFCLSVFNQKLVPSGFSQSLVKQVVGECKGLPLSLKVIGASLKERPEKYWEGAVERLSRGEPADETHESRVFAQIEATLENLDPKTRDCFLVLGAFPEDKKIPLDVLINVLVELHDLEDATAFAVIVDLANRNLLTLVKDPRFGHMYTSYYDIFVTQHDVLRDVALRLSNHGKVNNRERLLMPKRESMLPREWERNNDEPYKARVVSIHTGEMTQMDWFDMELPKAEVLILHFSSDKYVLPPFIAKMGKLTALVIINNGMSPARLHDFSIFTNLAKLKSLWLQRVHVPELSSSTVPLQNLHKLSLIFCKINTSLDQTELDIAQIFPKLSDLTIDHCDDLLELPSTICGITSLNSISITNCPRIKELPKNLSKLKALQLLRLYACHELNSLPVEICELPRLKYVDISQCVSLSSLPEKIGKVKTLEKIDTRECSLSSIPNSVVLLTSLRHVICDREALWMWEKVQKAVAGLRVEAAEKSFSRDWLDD
UniProt Q9FKZ1: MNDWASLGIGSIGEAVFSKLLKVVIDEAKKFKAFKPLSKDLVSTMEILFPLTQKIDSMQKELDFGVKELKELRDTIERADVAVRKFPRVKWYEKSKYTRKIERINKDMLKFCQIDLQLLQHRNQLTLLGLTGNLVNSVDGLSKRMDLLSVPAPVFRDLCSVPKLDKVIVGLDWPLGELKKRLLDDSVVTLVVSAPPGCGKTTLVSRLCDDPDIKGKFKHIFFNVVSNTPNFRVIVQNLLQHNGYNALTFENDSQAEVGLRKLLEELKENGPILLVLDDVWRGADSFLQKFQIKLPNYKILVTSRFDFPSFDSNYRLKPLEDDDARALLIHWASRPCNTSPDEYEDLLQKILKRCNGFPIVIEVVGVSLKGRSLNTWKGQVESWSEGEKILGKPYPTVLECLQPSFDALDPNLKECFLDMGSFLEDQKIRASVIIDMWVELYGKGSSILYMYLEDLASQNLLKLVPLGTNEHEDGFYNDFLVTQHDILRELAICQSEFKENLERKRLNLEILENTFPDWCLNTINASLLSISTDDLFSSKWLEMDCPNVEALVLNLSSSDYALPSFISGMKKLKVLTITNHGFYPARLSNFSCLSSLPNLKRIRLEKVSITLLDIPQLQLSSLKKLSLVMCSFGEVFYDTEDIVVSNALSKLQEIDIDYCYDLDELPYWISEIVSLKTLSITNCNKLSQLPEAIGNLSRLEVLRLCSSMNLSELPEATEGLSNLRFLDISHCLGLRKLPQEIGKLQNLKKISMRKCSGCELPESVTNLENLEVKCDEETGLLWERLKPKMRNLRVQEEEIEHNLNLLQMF
UniProt Q9FKZ0: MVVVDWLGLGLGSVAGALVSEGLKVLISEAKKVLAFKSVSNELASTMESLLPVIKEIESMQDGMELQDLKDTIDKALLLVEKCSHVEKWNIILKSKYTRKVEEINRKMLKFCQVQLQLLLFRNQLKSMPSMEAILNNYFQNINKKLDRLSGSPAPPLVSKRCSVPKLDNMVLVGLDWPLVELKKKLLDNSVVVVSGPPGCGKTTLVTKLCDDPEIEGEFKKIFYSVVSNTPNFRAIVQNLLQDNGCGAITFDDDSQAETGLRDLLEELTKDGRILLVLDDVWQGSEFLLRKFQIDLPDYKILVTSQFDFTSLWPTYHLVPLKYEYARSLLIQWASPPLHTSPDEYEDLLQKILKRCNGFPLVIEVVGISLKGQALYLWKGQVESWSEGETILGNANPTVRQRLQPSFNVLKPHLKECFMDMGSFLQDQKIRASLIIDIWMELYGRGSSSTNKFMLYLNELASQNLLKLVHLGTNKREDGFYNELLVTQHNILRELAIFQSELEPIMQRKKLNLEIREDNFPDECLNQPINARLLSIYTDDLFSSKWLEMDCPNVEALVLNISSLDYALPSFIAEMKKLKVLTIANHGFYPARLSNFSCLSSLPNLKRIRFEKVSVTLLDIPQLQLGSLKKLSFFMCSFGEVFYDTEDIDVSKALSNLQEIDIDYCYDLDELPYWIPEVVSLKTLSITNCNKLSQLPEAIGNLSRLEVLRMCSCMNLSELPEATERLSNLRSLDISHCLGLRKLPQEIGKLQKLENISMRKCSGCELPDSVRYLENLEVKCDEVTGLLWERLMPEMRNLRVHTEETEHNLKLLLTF


Assays:
[1] = target: T1, YFP-PAD4 (pPAD4:YFP-Linker-PAD4) (Arabidopsis thaliana); assay: affinity purification with mass spectrometry; GFP-trap agarose IP of SAG101-YFP, YFP-PAD4 or YFP-SH from total soluble leaf extracts of Arabidopsis lines, 6 hpi with Pf0-1 avrRps4 (OD 0.2); 20 mM PIPES-KOH pH 7.0, 150 mM NaCl, 10 mM MgCl2, 1% Triton X-100, 4 °C; LC-MS, label-free quantification
[2] = target: SAG101-YFP (pSAG101:SAG101-YFP) (Arabidopsis thaliana) (UniProt Q4F883); assay: as above
[3] = target: SAG101-YFP (pSAG101:SAG101-YFP) (Arabidopsis thaliana) (UniProt Q4F883); assay: affinity purification with mass spectrometry

Row | binding [1] | binding [2] | binding [3] | Molecule
1 | binds | no binding | – | ADR1-L2 (endogenous, Col) (from UniProt Q9LZ25)
2 | binds | binds | – | EDS1B (native Col-0 EDS1 isoform) (protein, UniProt Q9SU71 1-629) MAFEALTGVNGDLVTISWMASKGANQTEHYLKEEVGGTVFFAFRASFSSEDLFATENTSPFGEIKMKRNQFPCMRSIGNDVDTTVNEAFLKSLEVLIGPRTSFHASVQSAVDRKQQVVFTGHSFGGATAILATVWYLETYFIRDAYAAPEPRCVTFGAPLVGDYIFKHALGRENWSRFFVNFVTRFDIVPRIMLARKTTIEQTLSYVLGKLDSTRAPIHESDQVITEFYTRVMRDTYTVASKAVCQLIGNGEAFLETLSSFYELSPYRPVGTFVFSTQKRLVVVNNSDAILQMLFYTCQSNDEQELSVIPFLSIRDHHGYEELVQSIGIKLLNHLDLHNPLLDGENSIGSALDDLGMSTRARQCIHAALEAEKQRVENQKKIETKRDQIVERLTWIVEVYKPKCQAHKNGYYDSFKDSNEENDFKANVKRVELAGIFDEVLGLVKKGQLPDGFEGSRGWINLATQYRRLIEPLDISNYHGQLKNEDTGPYMLHGRPSRYKYAQRGYEHDILKPTGMIAKDVFWSKVNGLNLGLQQDIQEILKNSGSECGSCFWAEVEELKGKPYEEVQVRFKTLEGLLEGWIKDGEVDEKEIFLEGSTFRKWWNTLPDSHKIHAPLYPRERMMDETRAT

Continued, molecule first:

Row | Molecule | binding [1] | binding [2] | binding [3]
3 | NRG1.1 (endogenous, Col) (from UniProt Q9FKZ1) | – | – | binds
4 | NRG1.2 (endogenous, Col) (from UniProt Q9FKZ0) | no binding | binds | –
5 | EDS1A (native Col-0 EDS1 isoform) (protein, UniProt Q9SU72 1-623) MAFEALTGINGDLITRSWSASKQAYLTERYHKEEAGAVVIFAFQPSFSEKDFFDPDNKSSFGEIKLNRVQFPCMRKIGKGDVATVNEAFLKNLEAIIDPRTSFQASVEMAVRSRKQIVFTGHSSGGATAILATVWYLEKYFIRNPNVYLEPRCVTFGAPLVGDSIFSHALGREKWSRFFVNFVSRFDIVPRIMLARKASVEETLPHVLAQLDPRKSSVQESEQRITEFYTRVMRDTSTVANQAVCELTGSAEAFLETLSSFLELSPYRPAGTFVFSTEKRLVAVNNSDAILQMLFYTSQASDEQEWSLIPFRSIRDHHSYEELVQSMGKKLFNHLDGENSIESTLNDLGVSTRGRQYVQAALEEEKKRVENQKKIIQVIEQERFLKKLAWIEDEYKPKCQAHKNGYYDSFKVSNEENDFKANVKRAELAGVFDEVLGLMKKCQLPDEFEGDIDWIKLATRYRRLVEPLDIANYHRHLKNEDTGPYMKRGRPTRYIYAQRGYEHYILKPNGMIAEDVFWNKVNGLNLGLQLEEIQETLKNSGSECGSCFWAEVEELKGKPYEEVEVRVKTLEGMLGEWITDGEVDDKEIFLEGSTFRKWWITLPKNHKSHSPLRDYMMDEITDT | binds | binds | –

Reference: PMC8185089
